Paper PMC12040169 (PLOS Biology, 2025)
The list shows a part of the results.

The compounds below were run on T1, CTL2-GFP (C. trachomatis L2/434/Bu, GFP-expressing). Details: bulk GFP, single well; 28.5 h, 10 µM; inhibitor.
T1 construct: L2/434/Bu, GFP-expressing
Design: species or system HeLa; Intracellular C. trachomatis growth in HeLa cells, bulk GFP fluorescence relative to DMSO

| Structure (SMILES) | % of control remaining |
| --- | --- |
| O=C(COc1ccc(Cl)cc1Cl)Nc1cccc(NC(=O)c2ccccc2Cl)c1 [CBK264726] | 100% |
| O=C(Cc1cccc2ccccc12)NC(=S)Nc1cccc(C(=O)O)c1 [CBK267471] | 159.441% |
| COC(=O)CSc1nnc(-c2cc(Cl)ccc2OC)[nH]1 [CBK270248] | 122.021% |
| O=[N+]([O-])c1ccc(O)c(/C=N/C(CO)(CO)CO)c1 [CBK261835] | 99.9065% |
| O=C(CCN1C(=O)/C(=C\C=C\c2ccccc2)SC1=S)Nc1cccc(C(=O)O)c1 [CBK264798] | 118.236% |
| COc1ccccc1N1CCN(CC(=O)NC2CC3CCC2C3)CC1 (stereo not drawn) [CBK269162] | 136.602% |
| CC(C)Nc1nc(Cl)nc(Nc2ccc(I)cc2)n1 [CBK027685] | 118.384% |
| CC(C)Oc1ncc(C(=O)N(CCC#N)Cc2ccco2)cc1Cl [CBK304908] | 119.739% |
| COc1ccc(S(=O)(=O)N2CCCC(C(=O)NCc3ccc4c(c3)OCO4)C2)cc1Cl (stereo not drawn) [CBK268230] | 114.777% |
| COc1ccc(-c2ccc(C(=O)N(C)C)c(N3CCN(C(=O)c4ccco4)CC3)n2)cc1 [CBK106020] | 94.483% |
| Cc1csc(Sc2nc3ccccc3nc2N2CCCC2)n1 [CBK093788] | 125.803% |
| CCOC(=O)c1cnc(SC)nc1NCCc1c[nH]c2cc(OC)ccc12 [CBK092317] | 126.946% |
| Cc1cc(S(=O)(=O)N2CCCC2)ccc1OCC(=O)NCc1ccccn1 [CBK270027] | 93.8924% |
| Cc1ccc2n1CCN(C(=O)c1cccc(-n3cnnc3)c1)C2C(C)C (stereo not drawn) [CBK282444] | 120.733% |
| Cc1ccc(S(=O)(=O)N(CC(=O)NC2CC3CCC2C3)c2cc(Cl)cc(Cl)c2)cc1 (stereo not drawn) [CBK263995] | 116.451% |
| COc1ccc(C(=O)N2CCC(N(C)Cc3ccc(-c4ccc(S(C)(=O)=O)cc4)nc3)CC2)cc1Cl [CBK165991T] | 120.182% |
| Cc1cc(C)cc(NC(=O)C(Cc2ccccc2)C(=O)Nc2cc(C)cc(C)c2)c1 [CBK266165] | 112.097% |
| O=C(O)c1ccccc1NC1SC(=O)N(c2ccccc2)C1=O (stereo not drawn) [CBK261078] | 96.1455% |
| COc1ccccc1-c1ccc(NC(=O)CCc2nc3ccccc3[nH]2)cc1 [CBK285651] | 127.377% |
| COc1ccc(/C=N/NC(=O)c2ccc(O)cc2O)cc1COc1cc(C)c(Cl)c(C)c1 [CBK263000] | 141.799% |
| N#Cc1nc(COc2cccc(Cl)c2)oc1NCc1ccncc1 [CBK266447] | 167.335% |
| CC(C)(C)C(=O)NCCN1CCC(O)(c2ccc(F)cc2)CC1 [CBK283262] | 109.723% |
| CC(C)NC(=O)N1CCCC1c1nc(-c2ccc(Cl)cc2)c2ccccn12 (stereo not drawn) [CBK046947] | 113.113% |
| O=C(NC1CCN(c2nc3cccnc3s2)CC1)c1ccsc1 [CBK304342] | 115.998% |
| CCOC(=O)CN1CCC(Oc2cncc(OCCN3CCOCC3)n2)C1 (stereo not drawn) [CBK084491] | 99.7259% |
| Cc1cnc2c(Cl)c(C(=O)NCC3(CN4CCOCC4)CC3)nn2c1 [CBK306918] | 158.617% |

| Structure (SMILES) | % of control remaining |
| --- | --- |
| CN1CCCN(c2ccc(NS(=O)(=O)c3ccc(F)cc3F)c3ccccc23)CC1 [CBK001499C] | 31.3237% |
| CCCc1c(C(=O)N2CCN(c3cnccn3)CC2)cnn1C [CBK305962] | 82.0095% |
| COc1ccc(F)cc1-c1cccc(CC2(C(=O)NC3CCCCC3)CCOCC2)c1 [CBK285541] | 98.4977% |
| O=C(NCCCc1ccccn1)c1cc2ccc(F)cc2[nH]1 [CBK283211] | 107.402% |
| Cc1ccccc1-c1nnc(NC(=O)c2ccc(N3C(=O)CCC3=O)cc2)s1 [CBK287332] | 135.007% |
| Cc1nc(Oc2ccccc2)c2c3c(sc2n1)CCCC3 [CBK131919] | 136.758% |
| COc1cc(C)c2c(N)c(C(C)=O)sc2n1 [CBK115336] | 111.805% |
| CCOc1ccc2[nH]c(C(=O)NC3CCCOC3)cc2c1 (stereo not drawn) [CBK283114] | 127.271% |
| CCN1CC2(CCC1=O)CCN(Cc1nncn1C(C)C)CC2 [CBK307460] | 100.84% |
| O=C(CSc1nnc(-c2cccc(F)c2)o1)c1ccccc1 [CBK068764] | 104.295% |
| Cc1ccc(S(=O)(=O)NCCSc2nnc(Nc3ccccc3)s2)cc1 [CBK266345] | 127.257% |
| CC(C)Oc1ncc(C(=O)Nc2ccc(OCCC(N)=O)cc2)cc1Cl [CBK305750] | 129.117% |
| CC(C)N(C(=O)CN1C(=O)N2CCN=C2c2ccccc21)C(C)C [CBK284005] | 147.146% |
| Cc1c(C(=O)NCc2ccncc2)nnn1-c1cccc(C(F)(F)F)c1 [CBK107396] | 109.564% |
| C[C@@H]1CN2CCCC2CN1Cc1ccc2ncccc2c1 (stereo partly drawn) [CBK284555] | 87.6094% |
| CCc1nnc(NS(=O)(=O)c2ccc(N/C=C3\C(=O)N(c4ccc(C)cc4)N=C3C)cc2)s1 [CBK262395] | 10.0457% |
| O=C(Nc1ccc(Cl)cc1C(=O)O)c1ccccc1 [CBK269993] | 161.679% |
| Cc1cc(COC(=O)NCc2ccncc2)cc(C)n1 [CBK200136] | 91.9917% |
| CC1(C)CC(N(Cc2ccncc2)Cc2ccoc2)CC(C)(C)N1 [CBK283269] | 106.093% |
| CCOC(=O)C(CNC(=O)CNC(=O)c1ccoc1)Cc1ccccc1 (stereo not drawn) [CBK305971] | 102.238% |
| Cc1ccc(NC(=O)c2ccc3nccnc3c2)c(C)n1 [CBK200219] | 108.745% |
| COc1ccccc1NS(=O)(=O)c1ccc(N2CCN3CCCC3C2)c(N)c1 (stereo not drawn) [CBK001266] | 125.893% |
| CN1CCOc2ccccc2C(=O)NC/C=C/CC2(CCCN(Cc3cc[nH]n3)C2)C1=O (stereo not drawn) [CBK292175] | 130.865% |
| O=c1[nH]cc(CN2CCCN(S(=O)(=O)c3ccc(C(F)(F)F)cc3Cl)CC2)c(=O)[nH]1 [CBK062975] | 85.2529% |
| CN(C)c1ccc(/C=N/NC(=O)CCn2c3ccccc3c3cc(I)ccc32)cc1 [CBK262902] | 122.311% |
| CC(NS(=O)(=O)c1ccc(F)cc1)C(=O)Nc1ccc(C(N)=O)cc1 (stereo not drawn) [CBK267658] | 72.1933% |

Entries above with an NH in an aromatic ring (seven):

| Structure (SMILES) | % of control remaining |
| --- | --- |
| COC(=O)CSc1nnc(-c2cc(Cl)ccc2OC)[nH]1 [CBK270248] | 122.021% |
| CCOC(=O)c1cnc(SC)nc1NCCc1c[nH]c2cc(OC)ccc12 [CBK092317] | 126.946% |
| COc1ccccc1-c1ccc(NC(=O)CCc2nc3ccccc3[nH]2)cc1 [CBK285651] | 127.377% |
| O=C(NCCCc1ccccn1)c1cc2ccc(F)cc2[nH]1 [CBK283211] | 107.402% |
| CCOc1ccc2[nH]c(C(=O)NC3CCCOC3)cc2c1 (stereo not drawn) [CBK283114] | 127.271% |
| CN1CCOc2ccccc2C(=O)NC/C=C/CC2(CCCN(Cc3cc[nH]n3)C2)C1=O (stereo not drawn) [CBK292175] | 130.865% |
| O=c1[nH]cc(CN2CCCN(S(=O)(=O)c3ccc(C(F)(F)F)cc3Cl)CC2)c(=O)[nH]1 [CBK062975] | 85.2529% |

(further entries)

| Structure (SMILES) | % of control remaining |
| --- | --- |
| CN(C)CCN(C)C(=O)c1cc(Br)cnc1N1CCN(C(=O)c2ccco2)CC1 [CBK076514] | 113.113% |
| Cc1noc(C)c1S(=O)(=O)Nc1nnn[nH]1 [CBK062378] | 80.6512% |
| CC(C)CC(=O)Nc1ccc2nc(SCC(=O)O)sc2c1 [CBK299801] | 127.7% |
| CCc1c(C)sc2ncn(C3CCNCC3)c(=O)c12 [CBK282972] | 114.051% |
| COc1ccc(OC)c(NC(=O)Cn2cc(C(C)=O)c3ccccc32)c1 [CBK268661] | 132.573% |
| COc1nccnc1OC1CCN(CCc2ccc3ccccc3c2)CC1 [CBK084264] | 110.215% |
| CCOC(=O)[C@H]1CC[C@]2(CC1)CNC(=O)c1ccccc1O2 [CBK284893] | 125.93% |
| Cc1cc(C)c(-n2nnnc2SCc2ccc(F)cc2)c(C)c1 [CBK100994] | 76.0909% |
| Nc1c(C(=O)O)nnn1Cc1ccccc1 [CBK263796] | 100% |
| Cc1c(Cl)cccc1CNC(=O)CC1SC(NCC2CCCCC2)=NC1=O (stereo not drawn) [CBK067017] | 101.801% |
| COc1cccc(COc2cnc(-c3ccccc3)c(N)n2)c1OC [CBK145066] | 100.485% |
| O=C(Nc1ncc(Cc2ccc(F)cc2)s1)c1csc2c1CCCC2 [CBK300489] | 83.1825% |
| CCC(CN1CCCC1)NC(=O)Cc1c(C)[nH]c2ccc(F)cc12 (stereo not drawn) [CBK282751] | 145.02% |
| COc1ccc(-c2csc(NS(=O)(=O)c3c(C)cc(Cl)cc3Cl)n2)cc1 [CBK000814] | 104.484% |
| COc1ccc(/C=N/NC(=O)CCn2c3ccccc3c3ccccc32)cc1O [CBK262343] | 109.022% |
| CC1(C)O[C@@H]2O[C@@H](C(O)CNC(=O)c3ccccc3)[C@@H](NC(=O)c3ccccc3)[C@@H]2O1 (stereo partly drawn) [CBK008727] | 95.8925% |
| C[C@H](c1ccccc1)n1c(=O)[nH]c2ncc(-c3ccc(C(N)=O)cc3)nc21 [CBK064377] | 95.1137% |
| CN(C)CCCNC(=O)c1cccc(S(=O)(=O)N2CCCCC2)c1 [CBK304314C] | 120.983% |
| Cc1cccc(CN(CCCN(C)C)Cc2ccc(C)o2)n1 [CBK283187] | 108.078% |
| COc1ccc(NC(=O)CC(CN2CCN(c3ccc(Cl)cc3)CC2)C(=O)O)cc1 (stereo not drawn) [CBK286831] | 138.442% |
| Cn1c(=O)oc2ccc(C(=O)N3CCn4nc(CO)cc4C3)cc21 [CBK306821] | 132.275% |
| CCOCCCn1c(SC(C)C#N)nc2ccc(Br)cc2c1=O (stereo not drawn) [CBK306084] | 82.2383% |
| COc1ccc(-c2nn(CCC(=O)O)cc2/C=C2\SC(=S)NC2=O)cc1OC [CBK265318] | 105.169% |
| COc1cc(NC(=O)c2ccc(-c3cc4ccccc4oc3=O)cc2)ccc1NC(=O)C(C)C [CBK268601] | 91.0288% |
| S=c1[nH]cnc2c1[nH]c1ccc(Br)cc12 [CBK288487] | 78.7357% |
| CC1CCCN(C(=O)CCn2c(-c3ccccn3)cc3cccnc32)C1 (stereo not drawn) [CBK282154] | 126.866% |
